Earlier results as cited in patent US20230000835A1, “LYSINE-SPECIFIC HISTONE DEMETHYLASE INHIBITORS FOR THE TREATMENT OF MYELOPROLIFERATIVE NEOPLASMS” (Imago Biosciences, Inc., priority 2019, published 2023).
At least one compound was matched to its structure with a doubt left.

Test system: primary myelofibrosis patients
Settings: background statement; cited from earlier work

N#CC[C@H](C1CCCC1)n1cc(-c2ncnc3[nH]ccc23)cn1 [Ruxolitinib, ruxolitinib]
patients with spleen size or volume reduced by 35%: approximately 50%
